From the supplement of paper PMC3682954
Several values for one entry are separate records, joined by “and”; a condition that tells them apart may be missing. Equal entries are not always repeated. Structures can show the parent of a compound that is named as a salt. ± gives the standard deviation of the averaged measurements. Some of the results follow. Many values rest on one well or one pass, so single values are uncertain.

Tested on: RAW 264.7
Test: cell viability (MTT) relative to vehicle control; higher = more viable cells
Settings: stimulus: HMGB1 5 ug/ml, 18 h
[1] = compound concentration: 1 ug/ml

| SMILES | cell viability (compound concentration: 3 uM) | cell viability [1] [%] |
| --- | --- | --- |
| O=S(=O)(O)CCS [Mesna] | 94.7% | – |
| O=S(=O)(O)CCS | 102% | – |
| CCCCCCCCCCCCC[N+](C)(C)Cc1ccccc1 | 62.6 ± 22% | – |
| CCCCCCCCCCC/C=C\C(C)(C)/C=C\CCCC(=O)O [7,7-Dimethyl-(5Z,8Z)-eicosadienoic acid] | 96.7% | – |
| CCOc1ccccc1OCCN[C@H](C)Cc1ccc(OC)c(S(N)(=O)=O)c1 [Tamsulosin] | 96.5% | – |
| CCN1CCCC1CN=Cc1c(O)c(O)c(C(C)C)c2cc(C)c(-c3c(C)cc4c(C(C)C)c(O)c(O)c(C=NCC5CCCN5CC)c4c3O)c(O)c12 (stereo unspecified) | – | 99.8 |
| CC(C)NCC(O)COc1cccc2ccccc12 (stereo unspecified) [Propranolol] | 88.6% | – |
| COc1ccc2cc([C@@H](C)C(=O)O)ccc2c1 [(R) -Naproxen sodium salt] | 149% | – |
| Nc1nc(=O)c2c([nH]1)NC[C@@H](CNc1ccc(C(=O)N[C@@H](CCC(=O)O)C(=O)O)cc1)N2C=O [Folinic acid calcium salt] | 116% | – |
| Oc1c2ccccc2c2c3c(cccc13)N=N2 | 97% | – |
| C[C@]12C=CC(=O)C=C1CC[C@@H]1[C@@H]2[C@@H](O)C[C@@]2(C)[C@H]1CC[C@]2(O)C(=O)COC(=O)CCC(=O)O | 116% and 100% | – |
| C=C(C)[C@@H]1CC=C(C(=O)O)CC1 | 95.9% | – |
| C=C(C)[C@@H]1CC=C(C(=O)O)CC1 [(-)-Perillic acid] | 106% | – |
| C=C(C)[C@@H]1CC=C(C(=O)O)CC1 [(S)-(-)-Perillic acid] | – | 97.8 |
| COC(=O)[C@@H]1[C@H]2C[C@H]3c4[nH]c5ccccc5c4CCN3C[C@@H]2CC[C@@H]1O [Yohimbine HCl] | 101% | – |
| COC(=O)[C@@H]1[C@H]2C[C@H]3c4[nH]c5ccccc5c4CCN3C[C@@H]2CC[C@@H]1O [Yohimbine hydrochloride] | 108 ± 2.7% | – |
| COC(=O)[C@@H]1[C@H]2C[C@H]3c4[nH]c5ccccc5c4CCN3C[C@@H]2CC[C@@H]1O | 101% | – |
| CCCCC(CC)CNC(=N)NC(=N)NCCCCCCNC(=N)NC(=N)NCC(CC)CCCC (stereo unspecified) [Alexidine dihydrochloride] | 35.3% | – |
| CCCCCCc1ccc(O)cc1O | 96.3% | – |
| CC1(C)NC(=O)N(c2ccc([N+](=O)[O-])c(C(F)(F)F)c2)C1=O | 108% | – |
| CC1(C)NC(=O)N(c2ccc([N+](=O)[O-])c(C(F)(F)F)c2)C1=O [Nilutamide] | 98.6 ± 13% | – |

| SMILES | cell viability (compound concentration: 3 uM) | cell viability [1] [%] |
| --- | --- | --- |
| CC(C)C[C@H](NC(=O)[C@H]1O[C@@H]1C(=O)O)C(=O)NCCCCN=C(N)N | 94.9% | – |
| CCC1=C(C)CN(C(=O)NCCc2ccc(S(=O)(=O)NC(=O)N[C@H]3CC[C@H](C)CC3)cc2)C1=O | 96.4% | – |
| CCC1=C(C)CN(C(=O)NCCc2ccc(S(=O)(=O)NC(=O)N[C@H]3CC[C@H](C)CC3)cc2)C1=O [Glimepiride] | 105 ± 4.5% | – |
| O=P(O)(O)C(Cl)(Cl)P(=O)(O)O [Clodronic acid] | 103% | – |
| O=P(O)(O)C(Cl)(Cl)P(=O)(O)O [Clodronate] | 115 ± 12% | – |
| CC[C@H]1OC(=O)[C@H](C)C(=O)[C@H](C)[C@@H](O[C@@H]2O[C@H](C)C[C@H](N(C)C)[C@H]2O)[C@](C)(OC)C[C@@H](C)C(=O)[C@H](C)[C@H]2N(CCCCn3cnc(-c4cccnc4)c3)C(=O)O[C@]12C | 104 ± 2.3% | – |
| O=C(O)[C@H]1C[C@H](C(=O)O)N1 (relative stereo) [trans-Azetidine-2,4-dicarboxylic acid] | 110% | – |
| CCCCOc1cc(C(=O)NCCN(CC)CC)c2ccccc2n1 [Dibucaine] | 111% | – |
| CCCCOc1cc(C(=O)NCCN(CC)CC)c2ccccc2n1 | 94.9% | – |
| COc1cc(OC)c2c(c1)OC(c1ccccc1)CC2=O (stereo unspecified) [5,7-Dimethoxyflavanone] | – | 93.3 |
| CCS(=O)(=O)CCn1c([N+](=O)[O-])cnc1C | 103 ± 1.8% | – |
| CCS(=O)(=O)CCn1c([N+](=O)[O-])cnc1C [Tinidazole] | 120 ± 16% | – |
| O=C1CCc2cc(OCCCCc3nnnn3C3CCCCC3)ccc2N1 [Cilostazol] | 97.1 ± 16% | – |
| O=C1CCc2cc(OCCCCc3nnnn3C3CCCCC3)ccc2N1 | 104% | – |
| COc1ccc2cc1Oc1ccc(cc1)C[C@H]1c3cc(c(OC)cc3CCN1C)Oc1c(OC)c(OC)cc3c1[C@H](C2)N(C)CC3 | 116% | – |
| COc1ccc2cc1Oc1ccc(cc1)C[C@H]1c3cc(c(OC)cc3CCN1C)Oc1c(OC)c(OC)cc3c1[C@H](C2)N(C)CC3 [(S,S)-(+)-Tetrandrine] | – | 98.4 |
| CCCCn1c(=O)c2c(ncn2CC(C)=O)n(CCCC)c1=O [Denbufylline] | 109% | – |
| C[C@]12CC[C@@H]3c4ccc(O)cc4CC[C@H]3[C@@H]1CCC2=O | 109% | – |
| C[C@]12CC[C@@H]3c4ccc(O)cc4CC[C@H]3[C@@H]1CCC2=O [Estrone] | 100 ± 9.5% | – |
| COc1cc(C(=O)NC2CCCNC2)cc(OC)c1OC (stereo unspecified) | 87.8% | – |
| CC(=O)OCC1=C(C(=O)O)N2C(=O)[C@@H](NC(=O)CSc3ccncc3)[C@H]2SC1 [Cephapirin sodium salt] | – | 106 |

Some of the entries so far, tab-delimited.
SMILES	cell viability (compound concentration: 3 uM)	cell viability [1] [%]
C[C@]12CC[C@@H]3c4ccc(O)cc4CC[C@H]3[C@@H]1CCC2=O	109%	–
C[C@]12CC[C@@H]3c4ccc(O)cc4CC[C@H]3[C@@H]1CCC2=O [Estrone]	100 ± 9.5%	–

Additional entries follow.

| SMILES | cell viability (compound concentration: 3 uM) | cell viability [1] [%] |
| --- | --- | --- |
| CC(=O)OCC1=C(C(=O)O)N2C(=O)[C@@H](NC(=O)CSc3ccncc3)[C@H]2SC1 | 109% | – |
| CC(=O)N(CC(C)C(=O)O)c1c(I)cc(I)c(N)c1I (stereo unspecified) [Iocetamic acid] | 86.9% | – |
| O=C1OC2(c3ccc(O)cc3Oc3cc(O)ccc32)c2ccccc21 | 105% | – |
| COc1ccccc1-c1cc(=O)c2cc(O)ccc2o1 | – | 102 |
| CN(C)[C@@H]1C(O)=C(C(N)=O)C(=O)[C@@]2(O)C(O)=C3C(=O)c4c(O)ccc(Cl)c4[C@@](C)(O)[C@H]3C[C@@H]12 [Chlortetracycline hydrochloride] | 99.4% | – |
| CN(C)[C@@H]1C(O)=C(C(N)=O)C(=O)[C@@]2(O)C(O)=C3C(=O)c4c(O)ccc(Cl)c4[C@@](C)(O)[C@H]3C[C@@H]12 | 106 ± 1.6% | – |
| CCCCCCCC/C=C\CCCCCCCC(=O)NCCc1ccc(O)c(O)c1 [N-Oleoyldopamine] | 23.7% | – |
| O=NN(CCCl)C(=O)NC1CCCCC1 [Lomustine] | 117% | – |
| CNCCC(Oc1ccccc1OC)c1ccccc1 (stereo unspecified) [Nisoxetine] | 103% | – |
| CNCCC(Oc1ccccc1OC)c1ccccc1 (stereo unspecified) [Nisoxetine hydrochloride] | 97.3 ± 10% | – |
| CCCCC(C)(O)C/C=C/[C@H]1[C@H](O)CC(=O)[C@@H]1CCCCCCC(=O)OC (mixture of isomers) [Misoprostol] | 119 ± 22% | – |
| CC1CNCCN1S(=O)(=O)c1cccc2cnccc12 (stereo unspecified) | 94.6% | – |
| COc1ccccc1O [Guaiacol] | 102 ± 5.8% | – |
| Cc1cccc(CN2CCN(C(c3ccccc3)c3ccc(Cl)cc3)CC2)c1 (stereo unspecified) [Meclozine dihydrochloride] | 118% | – |
| Cc1cccc(CN2CCN(C(c3ccccc3)c3ccc(Cl)cc3)CC2)c1 (stereo unspecified) | 109% | – |
| O=C(O)CCC(=O)Nc1ccc(S(=O)(=O)Nc2nccs2)cc1 | 98.8% | – |
| O=C(O)CCC(=O)Nc1ccc(S(=O)(=O)Nc2nccs2)cc1 [Succinylsulfathiazole] | 110% | – |
| O=c1oc2c3c4c(cc2c2c1CCC2)CCCN4CCC3 [Coumarin 106] | – | 91.3 |
| CC(C)=CCC/C(C)=C/COc1c2occc2cc2ccc(=O)oc12 [Xanthotoxol geranyl ether] | – | 118 |
| COc1cnc(NS(=O)(=O)c2ccc(N)cc2)nc1 | 102% | – |
| COc1cnc(NS(=O)(=O)c2ccc(N)cc2)nc1 [Sulfameter] | 112% | – |

| SMILES | cell viability (compound concentration: 3 uM) | cell viability [1] [%] |
| --- | --- | --- |
| CC(C)Cc1ccc(C(C)C(=O)O)cc1 (racemic) [(±)-Ibuprofen] | 92.3% | – |
| CC1CN(S(=O)(=O)c2cccc3cnccc23)CCN1 (stereo unspecified) | 97.9% | – |
| CCOC(=O)C1=C[C@]2(CC)CCCN3CCc4c(n1c1ccccc41)[C@@H]32 [Vinpocetine] | 103 ± 5.2% | – |
| Cn1c(=O)ccn([C@@H]2O[C@H](CO)[C@@H](O)[C@H]2O)c1=O [3-Methyluridine] | – | 95.2 |
| COc1ccc(-c2cc(=O)c3c(O)cc(O[C@@H]4O[C@H](CO[C@@H]5O[C@@H](C)[C@H](O)[C@@H](O)[C@H]5O)[C@@H](O)[C@H](O)[C@H]4O)cc3o2)cc1O | 109% | – |
| C=C1C[C@]23C[C@@]1(O)CC[C@H]2[C@@]12C=C[C@H](O)[C@@](C)(C(=O)O1)[C@H]2[C@@H]3C(=O)O [Gibberellic Acid] | – | 80.2 |
| O=c1c2cc(O)c(O)cc2oc2cc(O)c([C@@H]3O[C@H](CO)[C@@H](O)[C@H](O)[C@H]3O)c(O)c12 [Mangiferin] | – | 90 |
| COc1cc(C(O)C(=O)O)ccc1O (racemic) [(±)-Vanillylmandelic acid] | 106% | – |
| CC(=O)C(C)=O [2,3-Butanedione] | 106% | – |
| CSc1nc(N)c2ncn([C@@H]3O[C@H](COP(=O)(O)OP(=O)(O)OP(=O)(O)O)[C@H](O)C3O)c2n1 (stereo partly specified) [2-Methylthioadenosine triphosphate tetrasodium] | 92.8% | – |
| CN1[C@@H](CC(=O)c2ccccc2)CCC[C@H]1C[C@H](O)c1ccccc1 [Lobeline] | 102% | – |
| CN1[C@@H](CC(=O)c2ccccc2)CCC[C@H]1C[C@H](O)c1ccccc1 [Lobeline hydrochloride] | – | 91.8 |
| CN1[C@@H](CC(=O)c2ccccc2)CCC[C@H]1C[C@H](O)c1ccccc1 [alpha-Lobeline hydrochloride] | 93% | – |
| CN1[C@@H](CC(=O)c2ccccc2)CCC[C@H]1C[C@H](O)c1ccccc1 [Lobeline alpha (-) hydrochoride] | 112% | – |
| CN1[C@@H](CC(=O)c2ccccc2)CCC[C@H]1C[C@H](O)c1ccccc1 | 103 ± 6.3% | – |
| OC[C@@H](O)[C@@H](O[C@@H]1O[C@H](CO)[C@H](O)[C@H](O)[C@H]1O)[C@H](O)[C@@H](O)CO | 112% | – |
| c1ccc2[nH]c(-c3cscn3)nc2c1 | 104% | – |
| c1ccc2[nH]c(-c3cscn3)nc2c1 [Tiabendazole] | 81.5% | – |

2 records drawn at random from the list so far:

| SMILES | cell viability (compound concentration: 3 uM) | cell viability [1] [%] |
| --- | --- | --- |
| Cc1cccc(CN2CCN(C(c3ccccc3)c3ccc(Cl)cc3)CC2)c1 (stereo unspecified) [Meclozine dihydrochloride] | 118% | – |
| Oc1c2ccccc2c2c3c(cccc13)N=N2 | 97% | – |
